Measured values reported in paper PMC6485759.
No constants are given. Whether binding was seen depends on the method and setting. Binding seen in cells or lysates may run through a third protein. Binding calls can cover weak binding; strength is not graded here.

The chains behind the UniProt entries cited, without tags or fusion partners. Where a name states a change or a piece, a line headed by the entry shows the natural chain unless it says otherwise.
UniProt Q9TZI9: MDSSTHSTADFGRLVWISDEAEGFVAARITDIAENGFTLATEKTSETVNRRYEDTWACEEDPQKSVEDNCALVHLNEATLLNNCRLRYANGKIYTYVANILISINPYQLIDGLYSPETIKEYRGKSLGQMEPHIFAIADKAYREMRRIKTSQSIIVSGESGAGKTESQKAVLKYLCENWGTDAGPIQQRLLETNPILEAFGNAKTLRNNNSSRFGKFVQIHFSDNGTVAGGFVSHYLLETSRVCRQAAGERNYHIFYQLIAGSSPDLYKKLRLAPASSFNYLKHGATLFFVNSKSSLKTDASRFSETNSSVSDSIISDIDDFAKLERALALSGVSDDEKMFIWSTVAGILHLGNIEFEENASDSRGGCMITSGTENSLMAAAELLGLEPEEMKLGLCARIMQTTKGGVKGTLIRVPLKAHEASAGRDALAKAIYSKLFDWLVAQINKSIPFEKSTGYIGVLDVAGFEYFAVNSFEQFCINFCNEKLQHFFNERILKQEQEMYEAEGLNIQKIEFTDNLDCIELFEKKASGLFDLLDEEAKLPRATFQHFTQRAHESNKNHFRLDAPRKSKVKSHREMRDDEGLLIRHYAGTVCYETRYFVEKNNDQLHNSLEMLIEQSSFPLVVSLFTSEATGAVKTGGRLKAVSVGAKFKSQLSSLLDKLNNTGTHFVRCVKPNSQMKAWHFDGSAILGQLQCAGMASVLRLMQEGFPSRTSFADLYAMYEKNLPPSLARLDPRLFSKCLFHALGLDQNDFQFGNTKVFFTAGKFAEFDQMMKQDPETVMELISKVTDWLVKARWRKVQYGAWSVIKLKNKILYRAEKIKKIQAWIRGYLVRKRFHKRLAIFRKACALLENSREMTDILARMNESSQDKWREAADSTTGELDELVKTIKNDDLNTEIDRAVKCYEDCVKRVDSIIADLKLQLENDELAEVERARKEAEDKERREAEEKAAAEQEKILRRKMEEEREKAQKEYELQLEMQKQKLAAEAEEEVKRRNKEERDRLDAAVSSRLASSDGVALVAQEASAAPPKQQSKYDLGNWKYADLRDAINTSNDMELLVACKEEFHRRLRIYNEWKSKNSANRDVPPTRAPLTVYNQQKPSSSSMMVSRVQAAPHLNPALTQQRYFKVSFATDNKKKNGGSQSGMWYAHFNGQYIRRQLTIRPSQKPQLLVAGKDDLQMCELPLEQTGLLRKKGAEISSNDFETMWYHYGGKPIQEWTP
UniProt Q18488: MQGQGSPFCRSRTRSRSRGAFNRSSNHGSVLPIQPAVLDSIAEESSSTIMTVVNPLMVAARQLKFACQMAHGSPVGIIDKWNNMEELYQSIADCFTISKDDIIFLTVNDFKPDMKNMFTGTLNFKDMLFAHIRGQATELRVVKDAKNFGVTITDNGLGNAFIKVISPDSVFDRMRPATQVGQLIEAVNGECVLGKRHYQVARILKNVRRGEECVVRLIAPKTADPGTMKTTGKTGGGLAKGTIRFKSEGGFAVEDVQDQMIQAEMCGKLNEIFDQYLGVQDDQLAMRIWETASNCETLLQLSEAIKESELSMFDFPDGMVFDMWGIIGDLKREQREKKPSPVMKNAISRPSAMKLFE
UniProt Q20393: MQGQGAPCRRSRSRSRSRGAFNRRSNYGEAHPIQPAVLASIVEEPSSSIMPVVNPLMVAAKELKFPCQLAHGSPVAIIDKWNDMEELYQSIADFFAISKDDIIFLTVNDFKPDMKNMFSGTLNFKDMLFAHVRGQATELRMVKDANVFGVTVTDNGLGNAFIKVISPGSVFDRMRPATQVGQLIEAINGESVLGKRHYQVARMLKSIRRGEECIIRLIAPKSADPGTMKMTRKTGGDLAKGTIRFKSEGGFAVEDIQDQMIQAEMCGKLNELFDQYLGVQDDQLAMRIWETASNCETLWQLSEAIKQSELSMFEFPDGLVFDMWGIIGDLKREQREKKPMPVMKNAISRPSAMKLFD

Biological target: FLAG::SPE-15 (CBD), cargo-binding domain of wild-type SPE-15/myosin VI (C. elegans) (UniProt Q9TZI9)
Test: co-IP; purified proteins mixed in 400 μl TBST (50 mM Tris-HCl pH 7.5, 300 mM NaCl, 0.1% Tween 20), 4°C, 2 h; FLAG::SPE-15(CBD) captured on anti-FLAG M2 magnetic beads, 4 h; bound MYC::GIPC shown by anti-MYC western blot; both purified

| binding | Substance |
| --- | --- |
| binds | MYC::GIPC-1 (from UniProt Q18488) |
| binds | MYC::GIPC-2 (from UniProt Q20393) |
